Data published in PubChem BioAssay AID485314 (National Center for Advancing Translational Sciences (NCATS), 2010).
Several values for one entry are separate records, joined by “and”; a condition that tells them apart may be missing. Identical values can stand only once. The whole screen tested about 340,000 compounds, of which about 4,500 (1.3%) were called active. The inconclusive results got no clear call from the source; some entries with a clear call stand among them for comparison. Calls follow the shape of the dose curve; as a rule, active = well fitted inhibition curve with a large enough effect; inconclusive = small, poorly fitted or top-dose-only effect, or another doubt; inactive = no such curve, though single readings can be large or run the other way. Potencies beside an inconclusive call are fits to weak or partial responses and may not hold up.

biological target: DNA polymerase beta (Homo sapiens) (UniProt P06746); experiment: qHTS Assay for Inhibitors of DNA Polymerase Beta; conditions: Pol beta primer extension/strand displacement, fluorescence kinetic; activity change, negative = inhibition: at 114 µM (top of the series)
Procedure, shortened: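 Preincubation: enzyme (10 nM) with compound, 15 min, RT. Reaction: substrate added to 50 nM final. Reads: 0 and 10 min. Analysis: normalized, Hill fit.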
% is scaled to controls: 0 for no effect and ±100 for the full control effect; potency is read from the fitted curve at half-maximal effect.

| SMILES | activity change, negative = inhibition | Potency |
| --- | --- | --- |
| CN(CCOc1ccccc1)C(=O)CCc1nc2sc3c(c2c(=O)[nH]1)CCCC3 | inconclusive: -118% [inhibitor] |  |
| CC1CCCN(C(=O)CCS(=O)(=O)c2cc3c(cc2Cl)NC(=O)CO3)C1 (configuration not stated) |  | inconclusive: 0.141 µM [inhibitor, full curve, poor fit] |
| O=C(O)/C(=C\c1cccc([N+](=O)[O-])c1)c1ccc(S(=O)(=O)N2CCCCC2)s1 |  | active: 25.1 µM |
| CCOc1ccc(N2CC(C(=O)Nc3ccccn3)CC2=O)cc1 (configuration not stated) |  | inconclusive: 63.1 µM [inhibitor, single point] |
| COC(=O)C1=C(C)N(c2ccc(OC)c(OC)c2)C(=O)/C1=C\c1ccco1 |  | inconclusive: 25.1 µM [inhibitor, full curve] |
| Cc1cc(Cl)ccc1NC(=O)CN1C(=O)COc2ccc(S(=O)(=O)N3CCC(C)CC3)cc21 |  | inactive |
| CSc1ccc(/C=C(\C(=O)O)c2ccc(S(=O)(=O)N3CCCCC3)s2)cc1 |  | inconclusive: 22.4 µM [inhibitor, full curve] |
| CN(CCC#N)C(=O)COC(=O)c1c2c(nc3ccccc13)/C(=C/c1ccco1)CC2 |  | active: 8.91 µM |
| Cc1sc2nc(CSc3nnnn3-c3ccc(Cl)cc3)[nH]c(=O)c2c1C |  | inconclusive: 39.8 µM [inhibitor, single point] |
| COc1ccc(S(=O)(=O)NCCc2sc(-c3ccccc3)nc2C)cc1F |  | inactive |
| O=C(Cc1ccc(Cl)cc1)Nc1ccc2oc(=O)ccc2c1 | inconclusive: -34.3% [inhibitor] |  |
| COC(=O)CSc1nc2c(c(-c3ccc(O)cc3)c1C#N)CCCC2 |  | inactive |
| CC1CCN(c2c(NCc3ccc(C(=O)NCCc4ccc(Cl)cc4)cc3)c(=O)c2=O)CC1 |  | active: 31.6 µM |
| CC(C)(C)c1ccc(OCC(=O)N(Cc2cccs2)C2CCS(=O)(=O)C2)cc1 (configuration not stated) |  | inconclusive: 89.1 µM [inhibitor, single point] |
| O=C(O)c1ccc2c(c1)C1C=CCC1C(c1ccncc1)N2 (configuration not stated) | inconclusive: -56.9% [inhibitor] |  |
| C[C@](N)(Cc1ccc(O)c(O)c1)C(=O)O |  | active: 1.41 µM and active: 1.12 µM |
| CN1CCN(c2ncnc3sc(-c4ccccc4)cc23)CC1 |  | inconclusive: 3.16 µM [inhibitor, full curve] |
| CCc1ccc(O)c(N=Cc2cccc(C)c2O)c1 |  | inconclusive: 89.1 µM [inhibitor, single point] |
| CCOC(=O)c1c(NC(=O)CSc2cn(CCNC(=O)c3c(F)cccc3F)c3ccccc23)sc2c1CCCC2 |  | inactive |
| O=C(O)CC(Sc1n[nH]c(=S)s1)C(=O)O (configuration not stated) |  | active: 25.1 µM |
| CCC(C)NC(=O)CCC(=O)NNc1nc2ccccc2c2nc(C)nn12 (configuration not stated) |  | inconclusive: 89.1 µM [inhibitor, single point] |
| CCOc1ccc(NS(=O)(=O)c2ccc(NS(=O)(=O)c3ccccc3)cc2)cc1 |  | inactive |
| O=C(CC(C(=O)O)c1ccccc1)c1cccs1 (configuration not stated) |  | inconclusive: 20 µM [inhibitor, partial curve] |
| COc1cc(/C=C2/C(=O)NN(c3cccc(C)c3)C2=O)cc([N+](=O)[O-])c1O |  | inconclusive: 14.1 µM [inhibitor, full curve] |

| SMILES | activity change, negative = inhibition | Potency |
| --- | --- | --- |
| CCCCCCCNC1=CC(=O)CC(c2ccco2)C1 (configuration not stated) |  | active: 11.2 µM |
| CCOc1ccc(N(CC(=O)N2CCOCC2)S(=O)(=O)c2ccc(SC)cc2)cc1 |  | inconclusive: 0.794 µM [inhibitor, single point] |
| O=C(O)c1cccc(-n2cccc2/C=C2/NC(=O)N(Cc3ccccc3F)C2=O)c1 |  | active: 10 µM |
| COC(=O)CN(c1ccc(F)cc1)S(=O)(=O)c1ccc2c(c1)OCCO2 |  | inconclusive: 39.8 µM [inhibitor, single point] |
| CCOC(=O)Cc1cc(=O)n2[nH]c(-c3ccc(Cl)cc3)cc2n1 |  | inconclusive: 25.1 µM [inhibitor, partial curve, poor fit] |
| Cc1ccccc1/C=N/n1c(-c2cc(-c3ccccc3)n[nH]2)n[nH]c1=S | inconclusive: -85.4% [inhibitor] |  |
| Cc1ccc(NC(=O)N(C)c2ccccc2)cc1 | inconclusive: -49.1% [inhibitor] |  |
| CCOC(=O)C(=O)CC(=O)c1ccc2c(c1)OCCO2 |  | inconclusive: 89.1 µM [inhibitor, single point] |
| COc1ccccc1CNC(=O)CCC(=O)N1Cc2ccccc2Oc2ncccc21 |  | inactive |
| Nc1cccc2c(=O)c3ccccc3[nH]c12 |  | active: 44.7 µM |
| COc1ccccc1OCCn1cc(/C=N/NC(=O)c2ccncc2)c2ccccc21 |  | inconclusive: 10 µM [inhibitor, full curve] |
| S=c1[nH]c(-c2ccccc2)cs1 |  | inactive |
| C=CCn1c(SCC(=O)NC2CCS(=O)(=O)C2)nnc1-c1cc2c(s1)CCC(CC)C2 (configuration not stated) |  | inconclusive: 50.1 µM [inhibitor, partial curve, poor fit] |
| COC(=O)c1ccc2c(c1)C(=O)/C(=C/c1ccc(O)cc1)O2 |  | inconclusive: 5.62 µM [inhibitor, full curve] |
| O=C(CCCOc1ccccc1)Nc1cccc([N+](=O)[O-])c1 |  | inactive |
| O=c1[nH]c2ccc(Cl)cc2c(=O)n1Cc1ccco1 |  | inconclusive: 89.1 µM [inhibitor, single point] |
| COC(=O)c1cc(O)cc(OC)c1Oc1cc(C)cc(O)c1C(=O)O |  | active: 3.16 µM |
| CCn1c(C)nc2cc(C(=O)N/N=C/c3ccc(N4CCOCC4)cc3)ccc21 |  | active: 22.4 µM |
| COc1ccc(NC(=O)CC2C(=O)N(c3cccc(OC)c3)C(=O)N2Cc2cccnc2)cc1 (configuration not stated) |  | inconclusive: 89.1 µM [inhibitor, single point] |
| Cc1ccc(C(=O)Oc2ccccc2N2CCOCC2)cc1 |  | inconclusive: 0.141 µM [inhibitor, full curve, poor fit] |
| O=C(O)COc1ccc(/C=N/NC(=O)c2ccc(-c3csc(Nc4ccc(Cl)cc4)n3)cc2)cc1 | inconclusive: -121% [inhibitor] |  |
| O=C(COc1ccc(Cl)cc1)Nc1nc(-c2ccc(S(=O)(=O)N3CCOCC3)cc2)cs1 |  | inconclusive: 3.98 µM [inhibitor, full curve] |
| CCc1ccc(OCC(=O)Nc2c(C(=O)c3ccccc3)oc3ccccc23)cc1 |  | inactive |
| CCc1ccc(-c2cc(C(=O)N/N=C/c3ccccn3)[nH]n2)cc1 |  | inactive |

| SMILES | activity change, negative = inhibition | Potency |
| --- | --- | --- |
| COCCNc1nc2nonc2nc1N(C)Cc1cccc2cnccc12 |  | inconclusive: 89.1 µM [inhibitor, single point] |
| NC(=O)Cn1c(=O)n(-c2ccc(F)c(Cl)c2)c(=O)c2sc3ccccc3c21 |  | inactive |
| CCc1nc(SCc2cc(=O)c3cc(F)ccc3[nH]2)n[nH]1 |  | inactive |
| CCn1c(/C(C#N)=N/O)nc2ccccc21 |  | inconclusive: 89.1 µM [inhibitor, single point] |
| Clc1ccc(C[n+]2cc(-c3ccccc3)n3c2CCC3)cc1Cl |  | inconclusive: 89.1 µM [inhibitor, single point] |
| CCN(CC)S(=O)(=O)c1ccc(NC(=O)[C@H](CCSC)N2Cc3ccccc3C2=O)cc1 |  | inconclusive: 28.2 µM [inhibitor, full curve, poor fit] |
| N=c1c(S(=O)(=O)c2ccc(Cl)cc2)cc2c(=O)n3ccccc3nc2n1Cc1ccco1 |  | active: 8.91 µM |
| CC(C)CC(=O)Nc1ccccc1Oc1ccccc1 |  | inconclusive: 100 µM [inhibitor, single point] |
| CCC1=NN2C(=N)/C(=C\c3ccc(SCc4ccco4)o3)C(=O)N=C2S1 |  | active: 12.6 µM |
| O=C(N/N=C/c1cccnc1)c1ccccc1OCc1ccc(Br)cc1 |  | inconclusive: 89.1 µM [inhibitor, single point] |
| Cc1ccc(NC(=O)c2cc(=O)n(Cc3ccccc3)c(=O)[nH]2)cc1C |  | active: 39.8 µM |
| O=C(NCc1ccccn1)c1ccc(Cn2c(=S)[nH]c3ccccc3c2=O)cc1 |  | inconclusive: 70.8 µM [inhibitor, single point] |
| O=C(Nc1ccc(F)cc1)C1CCCO1 (configuration not stated) |  | inconclusive: 22.4 µM [inhibitor, partial curve, poor fit] |
| Cc1cccc(OCc2nnc(SC(C)C(=O)O)n2Cc2ccccc2)c1 (configuration not stated) |  | inconclusive: 39.8 µM [inhibitor, single point] |
| O=C1OC/C(=C(/O)c2ccc(Cl)cc2)C1=O |  | inconclusive: 3.16 µM [inhibitor, partial curve, poor fit] |
| Cc1nc2nc(SCc3ccc([N+](=O)[O-])cc3)[nH]c2cc1Br |  | inconclusive: 31.6 µM [inhibitor, single point] |
| CC1CN(C(=S)NC(=O)C2CCCCC2)CC(C)O1 (configuration not stated) |  | inconclusive: 89.1 µM [inhibitor, single point] |
| N#Cc1ccsc1NC(=O)CSc1nnc(-c2ccccc2)o1 |  | inconclusive: 28.2 µM [inhibitor, partial curve] |
| N#C/C(=C/c1cn[nH]c1-c1ccc(Br)cc1)C(=O)O |  | inactive |
| Cc1ccc(NC(=O)N2CCC(CN3CCCCCC3)CC2)c(Cl)c1 |  | inactive |
| COC(=O)c1[nH]c2c(c1C)C(=O)CC(c1ccc(OC)c(OC)c1)C2 (configuration not stated) |  | inconclusive: 39.8 µM [inhibitor, single point] |
| C=CCOc1ccccc1/C=c1\sc2nc(=O)c(C)nn2c1=O |  | active: 25.1 µM |
| CSc1nc(-c2ccc(Cl)cc2)nn1C(=O)c1ccco1 |  | inconclusive: 1.12 µM [inhibitor, full curve, poor fit] |
| CC(=O)Nc1ccc(NC(=O)CSc2nnc(C)c(=O)[nH]2)cc1 |  | inconclusive: 15.8 µM [inhibitor, partial curve, poor fit] |
